Paper PMC7227406, “Protein Phosphatases Type 2C Group A Interact with and Regulate the Stability of ACC Synthase 7 in Arabidopsis” (Cells, 2020)
Like-named read-outs stand apart in the source and are kept apart here. These are yes or no findings as the source states them, for the method shown. Binding seen in cells or lysates may run through a third protein. Some results given as binding are weak or reduced against the parent protein; the word gives no strength. For some assays here: Tags and fused reporters may be left off the sequences shown.

The chains behind the UniProt entries cited, without tags or fusion partners.
UniProt P49597: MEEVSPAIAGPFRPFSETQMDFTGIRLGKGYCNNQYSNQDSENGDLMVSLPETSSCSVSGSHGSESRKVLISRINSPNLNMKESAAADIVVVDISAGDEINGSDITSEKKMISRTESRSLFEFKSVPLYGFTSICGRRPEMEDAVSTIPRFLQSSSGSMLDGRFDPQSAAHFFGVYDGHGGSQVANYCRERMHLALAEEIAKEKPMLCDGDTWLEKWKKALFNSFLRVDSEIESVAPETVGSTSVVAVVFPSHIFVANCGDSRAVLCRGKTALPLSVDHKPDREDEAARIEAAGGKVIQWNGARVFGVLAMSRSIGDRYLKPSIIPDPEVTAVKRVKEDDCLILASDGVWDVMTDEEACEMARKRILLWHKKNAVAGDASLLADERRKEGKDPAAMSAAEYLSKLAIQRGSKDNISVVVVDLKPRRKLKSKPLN
UniProt O04719: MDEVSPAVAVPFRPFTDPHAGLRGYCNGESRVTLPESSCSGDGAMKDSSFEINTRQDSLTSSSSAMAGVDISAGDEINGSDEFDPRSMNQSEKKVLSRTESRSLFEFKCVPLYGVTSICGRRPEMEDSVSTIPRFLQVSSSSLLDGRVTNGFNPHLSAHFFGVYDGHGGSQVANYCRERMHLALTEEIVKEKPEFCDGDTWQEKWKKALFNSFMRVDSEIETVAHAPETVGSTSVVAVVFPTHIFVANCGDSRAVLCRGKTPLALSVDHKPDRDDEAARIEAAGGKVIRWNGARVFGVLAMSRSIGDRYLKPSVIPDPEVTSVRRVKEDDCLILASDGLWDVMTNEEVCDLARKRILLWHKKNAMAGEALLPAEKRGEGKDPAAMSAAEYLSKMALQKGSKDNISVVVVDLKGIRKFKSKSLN

T1: nVenus–ACS7 (1-aminocyclopropane-1-carboxylate synthase 7 fused with the N-terminal fragment of Venus) (Arabidopsis thaliana) (UniProt Q9STR4)
T1 sequence: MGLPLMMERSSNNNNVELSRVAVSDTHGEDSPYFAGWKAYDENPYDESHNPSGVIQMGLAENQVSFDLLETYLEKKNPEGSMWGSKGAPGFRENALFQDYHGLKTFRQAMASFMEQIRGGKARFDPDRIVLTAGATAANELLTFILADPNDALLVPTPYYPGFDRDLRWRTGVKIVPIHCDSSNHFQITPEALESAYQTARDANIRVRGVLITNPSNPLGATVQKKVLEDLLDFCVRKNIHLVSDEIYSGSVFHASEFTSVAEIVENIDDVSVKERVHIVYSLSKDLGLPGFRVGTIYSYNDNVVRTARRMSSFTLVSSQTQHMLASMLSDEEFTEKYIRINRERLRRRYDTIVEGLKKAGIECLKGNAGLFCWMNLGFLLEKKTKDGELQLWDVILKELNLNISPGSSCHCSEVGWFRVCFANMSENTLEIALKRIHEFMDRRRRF

T2: nVenus–ACS7 Δ2 (ACS7^1–100) (Arabidopsis thaliana) (UniProt Q9STR4)
T2 sequence: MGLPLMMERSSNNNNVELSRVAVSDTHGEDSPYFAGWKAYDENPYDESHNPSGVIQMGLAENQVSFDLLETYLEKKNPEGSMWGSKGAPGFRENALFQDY

T3: nVenus–ACS7 Δ3 (ACS7^200–447) (Arabidopsis thaliana) (UniProt Q9STR4)
T3 sequence: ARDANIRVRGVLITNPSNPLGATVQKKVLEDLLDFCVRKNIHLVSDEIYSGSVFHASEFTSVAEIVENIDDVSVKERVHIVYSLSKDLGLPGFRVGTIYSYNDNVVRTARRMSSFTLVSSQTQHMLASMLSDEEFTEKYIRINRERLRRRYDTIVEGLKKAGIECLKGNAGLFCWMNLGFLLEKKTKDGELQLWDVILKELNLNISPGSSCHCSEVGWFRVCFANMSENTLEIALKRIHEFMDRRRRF

T4: nVenus–ACS7 Δ1 (ACS7^1–50) (Arabidopsis thaliana) (UniProt Q9STR4)
T4 sequence: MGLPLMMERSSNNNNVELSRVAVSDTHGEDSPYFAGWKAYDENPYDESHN

T5: nVenus–ACS7 Δ4 (ACS7^101–447) (Arabidopsis thaliana) (UniProt Q9STR4)
T5 sequence: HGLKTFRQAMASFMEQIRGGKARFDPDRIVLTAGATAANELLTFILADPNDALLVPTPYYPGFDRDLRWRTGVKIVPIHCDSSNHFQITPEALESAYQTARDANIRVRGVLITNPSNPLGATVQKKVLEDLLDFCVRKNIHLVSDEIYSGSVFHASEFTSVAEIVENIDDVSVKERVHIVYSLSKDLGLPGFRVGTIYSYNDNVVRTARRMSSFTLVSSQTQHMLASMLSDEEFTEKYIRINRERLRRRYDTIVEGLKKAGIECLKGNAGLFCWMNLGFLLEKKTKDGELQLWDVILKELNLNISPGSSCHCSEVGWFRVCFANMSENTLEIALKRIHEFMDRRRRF


Tests used:
Assay in all cases: split reporter; multicolor BiFC (mcBiFC) in Arabidopsis leaf mesophyll protoplasts; plasmids for nVenus and cCFP fusions mixed 1:1, PEG-mediated transformation, overnight at room temperature; confocal microscopy, 488 nm excitation, 500–550 nm emission; CBP20–RFP as transformation control and nuclear marker
[1] = biological target: T1, nVenus–ACS7 (1-aminocyclopropane-1-carboxylate synthase 7 fused with the N-terminal fragment of Venus) (Arabidopsis thaliana)
[2] = biological target: T2, nVenus–ACS7 Δ2 (ACS7^1–100) (Arabidopsis thaliana)
[3] = biological target: T3, nVenus–ACS7 Δ3 (ACS7^200–447) (Arabidopsis thaliana)
[4] = biological target: T4, nVenus–ACS7 Δ1 (ACS7^1–50) (Arabidopsis thaliana)
[5] = biological target: T5, nVenus–ACS7 Δ4 (ACS7^101–447) (Arabidopsis thaliana)
[6] = biological target: T1, nVenus–ACS7 (1-aminocyclopropane-1-carboxylate synthase 7 fused with the N-terminal fragment of Venus) (Arabidopsis thaliana); remark: listed apart in the source

binding [1] | binding [2] | binding [3] | binding [4] | binding [5] | binding [6] | Molecule
binds | binds | binds | binds | binds | – | cCFP–ABI1 (protein phosphatase type 2C ABI1 fused with the C-terminal fragment of CFP) (from UniProt P49597 1-434) (enzyme)
binds | binds | binds | binds | binds | – | cCFP–ABI2 (protein phosphatase type 2C ABI2 fused with the C-terminal fragment of CFP) (from UniProt O04719 1-423) (enzyme)
– | – | – | – | – | binds | nVenus–ACS7 (1-aminocyclopropane-1-carboxylate synthase 7 fused with the N-terminal fragment of Venus) (enzyme, UniProt Q9STR4 1-447) MGLPLMMERSSNNNNVELSRVAVSDTHGEDSPYFAGWKAYDENPYDESHNPSGVIQMGLAENQVSFDLLETYLEKKNPEGSMWGSKGAPGFRENALFQDYHGLKTFRQAMASFMEQIRGGKARFDPDRIVLTAGATAANELLTFILADPNDALLVPTPYYPGFDRDLRWRTGVKIVPIHCDSSNHFQITPEALESAYQTARDANIRVRGVLITNPSNPLGATVQKKVLEDLLDFCVRKNIHLVSDEIYSGSVFHASEFTSVAEIVENIDDVSVKERVHIVYSLSKDLGLPGFRVGTIYSYNDNVVRTARRMSSFTLVSSQTQHMLASMLSDEEFTEKYIRINRERLRRRYDTIVEGLKKAGIECLKGNAGLFCWMNLGFLLEKKTKDGELQLWDVILKELNLNISPGSSCHCSEVGWFRVCFANMSENTLEIALKRIHEFMDRRRRF
